Some results were stated once for a whole list of compounds, not compound by compound.
Experiments:
Type in all cases: in vivo
[1] = system: vetch aphid (Megoura viciae); conditions: 800 ppm; sprayed broad bean leaf disks; adult aphids; 5 days
Description: For evaluating control of vetch aphid (Megoura viciae) through contact or systemic means the test unit consisted of 24-well-microtiter plates containing broad bean leaf disks.
The compounds were formulated using a solution containing 75% v/v water and 25% v/v DMSO. Different concentrations of formulated compounds were sprayed onto the leaf disks at 2.5 μl, using a custom built micro atomizer, at two replications.
After application, the leaf disks were air-dried and 5 to 8 adult aphids were placed on the leaf disks inside the microtiter plate wells. The aphids were then allowed to suck on the treated leaf disks and were incubated at about 23±1° C. and about 50±5% relative humidity for 5 days. Aphid mortality and fecundity were then visually assessed.

[2] = system: Cotton Aphid (Aphis gossypii); conditions: 300 ppm; infested cotton plants sprayed; after 5 days
Description: The active compounds were formulated in cyclohexanone as a 10′ 000 ppm solution supplied in 1.3 ml ABgene® tubes. These tubes were inserted into an automated electrostatic sprayer equipped with an atomizing nozzle and they served as stock solutions for which lower dilutions were made in 1:1 (vol:vol) water:aceton. A nonionic surfactant (Kinetic®) was included in the solution at a volume of 0.01% (v/v).
Cotton plants at the cotyledon stage were infested with aphids prior to treatment by placing a heavily infested leaf from the main aphid colony on top of each cotyledon. Aphids were allowed to transfer overnight to accomplish an infestation of 80-100 aphids per plant and the host leaf was removed. The infested plants were then sprayed by an automated electrostatic plant sprayer equipped with an atomizing spray nozzle. The plants were dried in the sprayer fume hood, removed from the sprayer, and then maintained in a growth room under fluorescent lighting in a 24-hr photoperiod at 25° C. and 20-40% relative humidity. Aphid mortality on the treated plants, relative to mortality on untreated control plants, was determined after 5 days.

[3] = system: Cowpea Aphid (Aphis craccivora); conditions: 300 ppm; colonized cowpea plants sprayed; population reduction assessed after 24, 72 and 120 hours
Description: The active compound was dissolved at the desired concentration in a mixture of 1:1 (vol:vol) distilled water:acetone. The test solution was prepared at the day of use. Potted cowpea plants colonized with approximately 100 to 150 aphids of various stages were sprayed after the pest population had been recorded. Population reduction was assessed after 24, 72, and 120 hours.

[4] = system: green peach aphid (Myzus persicae); conditions: 800 ppm; in aphid diet under artificial membrane; adult aphids; 3 days
Excerpt: For evaluating control of green peach aphid (Myzus persicae) through systemic means the test unit consisted of 96-well-microtiter plates containing liquid artificial diet under an artificial membrane.
The compounds were formulated using a solution containing 75% v/v water and 25% v/v DMSO. Different concentrations of formulated compounds were pipetted into the aphid diet, using a custom built pipetter, at two replications.
After application, 5 to 8 adult aphids were placed on the artificial membrane inside the microtiter plate wells. The aphids were then allowed to suck on the treated aphid diet and were incubated at about 23±1° C. and about 50±5% relative humidity for 3 days. Aphid mortality and fecundity was then visually assessed.

Measured: mortality in comparison with untreated controls

C(=NNCc1ccccc1)c1cccc(-c2cnc(-c3cccnc3)s2)n1 [Compound 1-13]
at least 75%: [1] | [2] | [3]

O=C(NCC(F)(F)F)NN=Cc1cccc(-c2cnc(-c3cccnc3)s2)n1 [Compound 1-17]
at least 75%: [2] | [3]

Fc1ccc(NN=Cc2cccc(-c3cnc(-c4cccnc4)s3)n2)cc1Cl [Compound 3-36]
at least 75%: [1] | [4] | [2] | [3]

FC(F)(F)c1ccc(NN=Cc2cccc(-c3cnc(-c4cccnc4)s3)n2)cc1 [Compound 3-20]
at least 75%: [1] | [2] | [3]

C(=NNc1ccc2c(c1)OCCO2)c1cccc(-c2cnc(-c3cccnc3)s2)n1 [Compound 3-26]
at least 75%: [1] | [4] | [3]

Fc1ccc(NN=Cc2cccc(-c3cnc(-c4cccnc4)s3)n2)cc1 [Compound 3-33]
at least 75%: [1] | [4] | [3]

CC(=NNc1ccccc1)c1cccc(-c2cnc(-c3cccnc3)s2)n1 [Compound 3-3]
at least 75%: [1] | [4] | [2] | [3]

C(=NN1CCCC1)c1cccc(-c2cnc(-c3cccnc3)s2)n1 [Compound 3-12]
at least 75%: [4] | [2] | [3]

FC(F)(F)c1cccc(NN=Cc2cccc(-c3cnc(-c4cccnc4)s3)n2)c1 [Compound 3-9]
at least 75%: [1] | [4] | [3]

FC(F)(F)CON=Cc1cccc(-c2cnc(-c3cccnc3)s2)n1 [Compound 1-12]
at least 75%: [1] | [4] | [2] | [3]

CON=C(c1cccc(-c2cnc(-c3cccnc3)s2)n1)C(F)(F)F [Compound 3-47]
at least 75%: [1] | [4] | [3]

O=C(NN=Cc1cccc(-c2cnc(-c3cccnc3)s2)n1)c1ccccc1 [Compound 1-15]
at least 75%: [1] | [4] | [3]

Cc1ccc(NN=Cc2cccc(-c3cnc(-c4cccnc4)s3)n2)cc1 [Compound 3-34]
at least 75%: [1] | [4] | [3]

COc1ccccc1NN=Cc1cccc(-c2cnc(-c3cccnc3)s2)n1 [Compound 3-18]
at least 75%: [1] | [4] | [3]

CN(C)N=Cc1cccc(-c2sc(-c3cccnc3)nc2Cl)n1 [Compound 3-50]
at least 75%: [1] | [4] | [3]
